# Reference: paper doi:10.1101/2022.08.31.505729
# The chains behind the UniProt entries cited, without tags or fusion partners.
# UniProt F4J8D3: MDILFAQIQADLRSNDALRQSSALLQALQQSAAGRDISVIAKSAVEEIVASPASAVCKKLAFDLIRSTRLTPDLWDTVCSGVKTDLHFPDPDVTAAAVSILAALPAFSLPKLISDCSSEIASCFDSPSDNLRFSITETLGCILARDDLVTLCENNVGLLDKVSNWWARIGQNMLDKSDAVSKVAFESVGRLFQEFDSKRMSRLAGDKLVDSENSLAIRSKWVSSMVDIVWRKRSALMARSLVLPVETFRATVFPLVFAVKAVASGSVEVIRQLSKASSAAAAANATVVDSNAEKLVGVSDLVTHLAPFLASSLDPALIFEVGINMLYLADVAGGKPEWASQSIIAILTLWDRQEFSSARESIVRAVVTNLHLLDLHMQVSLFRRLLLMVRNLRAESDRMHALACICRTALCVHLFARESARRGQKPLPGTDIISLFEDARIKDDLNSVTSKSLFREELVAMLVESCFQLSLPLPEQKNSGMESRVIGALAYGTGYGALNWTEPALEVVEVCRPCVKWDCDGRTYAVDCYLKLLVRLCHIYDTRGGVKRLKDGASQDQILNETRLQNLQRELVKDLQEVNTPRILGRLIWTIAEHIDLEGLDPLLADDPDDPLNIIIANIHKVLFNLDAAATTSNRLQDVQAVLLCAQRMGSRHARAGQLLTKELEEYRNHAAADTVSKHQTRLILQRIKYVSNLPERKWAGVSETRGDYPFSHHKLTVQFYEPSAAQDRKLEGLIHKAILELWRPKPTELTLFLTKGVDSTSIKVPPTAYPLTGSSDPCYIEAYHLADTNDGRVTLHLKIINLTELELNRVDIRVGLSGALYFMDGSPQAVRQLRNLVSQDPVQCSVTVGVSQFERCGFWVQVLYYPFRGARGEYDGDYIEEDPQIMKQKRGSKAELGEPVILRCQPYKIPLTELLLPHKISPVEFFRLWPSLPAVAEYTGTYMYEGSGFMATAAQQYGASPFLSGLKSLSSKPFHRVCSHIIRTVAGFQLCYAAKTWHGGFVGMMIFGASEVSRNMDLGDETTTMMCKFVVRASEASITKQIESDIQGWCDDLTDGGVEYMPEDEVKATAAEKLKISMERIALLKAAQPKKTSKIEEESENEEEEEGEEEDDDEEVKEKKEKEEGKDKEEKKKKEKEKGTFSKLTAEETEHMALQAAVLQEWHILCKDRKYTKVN
# Results are given in words; binding and its absence hold for the method and conditions named. In cells and extracts the contact can be indirect. Some binding calls cover weakened binding; strength is not graded here. Tags and fused reporters may be left off the sequences shown.
# B1: FORMIN-LIKE6 (FH6) (rBiFC fusion) (protein, UniProt Q9FJX6 25-899)
# chain: EAHRRILHQPLFPESSTPPPPDFQSTPSPPLPDTPDQPFFPENPSTPQQTLFPPPPPPVSADVNGGLPIPTATTQSAKPGKKVAIVISVGIVTLGMLSALAFFLYRHKAKHASDTQKLVTGGGDGGGSRRFQEDSGPPTTTSSTFLYMGTVEPTRVSASESNGGTNGPVNSSPYRKLNSAKRSERYRPSPELQPLPPLAKPPQPSDNSPSALSPSSSSSGEECRDTAFYTPHGSAISSDDGYYTAFPRSANGSLPHSKRTSPRSKFGSAPTTAASRSPEMKHVIIPSIKQKLPPPVQPPPLRGLESDEQELPYSQNKPKFSQPPPPPNRAAFQAITQEKSPVPPPRRSPPPLQTPPPPPPPPPLAPPPPPQKRPRDFQMLRKVTNSEATTNSTTSPSRKQAFKTPSPKTKAVEEVNSVSAGSLEKSGDGDTDPSKPKLKPLHWDKVRASSDRATVWDQLKSSSFQLNEDRMEHLFGCNSGSSAPKEPVRRSVIPLAENENRVLDPKKSQNIAILLRALNVTREEVSEALTDGNPESLGAELLETLVKMAPTKEEEIKLREYSGDVSKLGTAERFLKTILDIPFAFKRVEAMLYRANFDAEVKYLRNSFQTLEEASLELKASRLFLKLLEAVLMTGNRMNVGTNRGDAIAFKLDTLLKLVDIKGVDGKTTLLHFVVQEITRSEGTTTTKDETILHGNNDGFRKQGLQVVAGLSRDLVNVKKSAGMDFDVLSSYVTKLEMGLDKLRSFLKTETTQGRFFDSMKTFLKEAEEEIRKIKGGERKALSMVKEVTEYFHGNAAREEAHPLRIFMVVRDFLGVLDNVCKEVKTMQEMSTSMGSASARSFRISATASLPVLHRYKARQDDTSSDSEHSSNSST
# How the values were obtained:
# [1] = molecular target: T1, BAG4-GFP (Arabidopsis thaliana) (UniProt Q8RX71); assay: co-IP
# T1 sequence: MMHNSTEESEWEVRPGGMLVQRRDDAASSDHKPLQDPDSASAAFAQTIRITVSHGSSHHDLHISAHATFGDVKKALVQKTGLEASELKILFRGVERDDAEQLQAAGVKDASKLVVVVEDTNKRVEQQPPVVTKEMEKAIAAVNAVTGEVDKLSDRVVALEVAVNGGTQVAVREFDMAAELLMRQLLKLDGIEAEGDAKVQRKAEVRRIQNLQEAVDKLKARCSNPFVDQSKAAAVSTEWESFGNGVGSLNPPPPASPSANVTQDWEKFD
# [2] = molecular target: T2, nYFP-AP2M (Arabidopsis thaliana) (UniProt O23140); assay: split reporter
# T2 sequence: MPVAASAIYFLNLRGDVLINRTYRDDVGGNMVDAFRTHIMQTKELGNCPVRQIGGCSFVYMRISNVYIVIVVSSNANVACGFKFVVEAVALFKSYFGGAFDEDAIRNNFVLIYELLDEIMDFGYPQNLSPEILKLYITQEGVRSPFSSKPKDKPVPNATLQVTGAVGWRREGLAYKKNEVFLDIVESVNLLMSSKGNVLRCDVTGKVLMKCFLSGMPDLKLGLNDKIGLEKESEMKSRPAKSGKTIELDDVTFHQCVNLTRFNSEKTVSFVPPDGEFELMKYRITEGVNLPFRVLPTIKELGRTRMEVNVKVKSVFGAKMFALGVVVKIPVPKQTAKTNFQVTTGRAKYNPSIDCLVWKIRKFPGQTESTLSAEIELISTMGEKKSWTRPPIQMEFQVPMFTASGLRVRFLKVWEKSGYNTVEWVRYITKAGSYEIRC
Molecule,binding [1],binding [2]
TPLATE (TPC subunit detected with α-TPLATE) (from UniProt F4J8D3 1-1176),binds,
B1,,binds weakly
